Results are given in words; binding and its absence hold for the method and conditions named. Some entries that bind do so weakly or less than the wild type.
Target: T1, GHBP-H5 peptide (H5WT)
T1 sequence (peptide, biotinylated in the BIAcore and TRFD formats (position not stated)): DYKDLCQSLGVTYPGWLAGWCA
Experiment: BIAcore, H5 on a streptavidin chip (1100 RU), rGHBP injected at 500 µg/ml

B1: rat growth hormone binding protein (rGHBP) (receptor, UniProt P16310 19-265, looked up)
chain: FPGSGATPATLGKASPVLQRINPSLRESSSGKPRFTKCRSPELETFSCYWTEGDDHNLKVPGSIQLYYARRIAHEWTPEWKECPDYVSAGANSCYFNSSYTSIWIPYCIKLTTNGDLLDEKCFTVDEIVQPDPPIGLNWTLLNISLPGIRGDIQVSWQPPPSADVLKGWIILEYEIQYKEVNETKWKTMSPIWSTSVPLYSLRLDKEHEVRVRSRQRSFEKYSEFSEVLRVTFPQMDTLAACEEDFR
Question: Which binding does the source give for B1 here?
Answer: The binding was “binds”.

— US20060252697A1 (ANTYRA, published 2006)
